These are yes or no findings as the source states them, for the method shown. In cells and extracts the contact can be indirect.
Molecular target: BRCA1 (human (endogenous in colorectal cancer cells)) (UniProt P38398)
Test: co-IP; in colorectal cancer cells; performed as previously reported (ref. 2); which protein was precipitated is not told

Amino acid sequences for entries named in this document (tags omitted).
UniProt P38398: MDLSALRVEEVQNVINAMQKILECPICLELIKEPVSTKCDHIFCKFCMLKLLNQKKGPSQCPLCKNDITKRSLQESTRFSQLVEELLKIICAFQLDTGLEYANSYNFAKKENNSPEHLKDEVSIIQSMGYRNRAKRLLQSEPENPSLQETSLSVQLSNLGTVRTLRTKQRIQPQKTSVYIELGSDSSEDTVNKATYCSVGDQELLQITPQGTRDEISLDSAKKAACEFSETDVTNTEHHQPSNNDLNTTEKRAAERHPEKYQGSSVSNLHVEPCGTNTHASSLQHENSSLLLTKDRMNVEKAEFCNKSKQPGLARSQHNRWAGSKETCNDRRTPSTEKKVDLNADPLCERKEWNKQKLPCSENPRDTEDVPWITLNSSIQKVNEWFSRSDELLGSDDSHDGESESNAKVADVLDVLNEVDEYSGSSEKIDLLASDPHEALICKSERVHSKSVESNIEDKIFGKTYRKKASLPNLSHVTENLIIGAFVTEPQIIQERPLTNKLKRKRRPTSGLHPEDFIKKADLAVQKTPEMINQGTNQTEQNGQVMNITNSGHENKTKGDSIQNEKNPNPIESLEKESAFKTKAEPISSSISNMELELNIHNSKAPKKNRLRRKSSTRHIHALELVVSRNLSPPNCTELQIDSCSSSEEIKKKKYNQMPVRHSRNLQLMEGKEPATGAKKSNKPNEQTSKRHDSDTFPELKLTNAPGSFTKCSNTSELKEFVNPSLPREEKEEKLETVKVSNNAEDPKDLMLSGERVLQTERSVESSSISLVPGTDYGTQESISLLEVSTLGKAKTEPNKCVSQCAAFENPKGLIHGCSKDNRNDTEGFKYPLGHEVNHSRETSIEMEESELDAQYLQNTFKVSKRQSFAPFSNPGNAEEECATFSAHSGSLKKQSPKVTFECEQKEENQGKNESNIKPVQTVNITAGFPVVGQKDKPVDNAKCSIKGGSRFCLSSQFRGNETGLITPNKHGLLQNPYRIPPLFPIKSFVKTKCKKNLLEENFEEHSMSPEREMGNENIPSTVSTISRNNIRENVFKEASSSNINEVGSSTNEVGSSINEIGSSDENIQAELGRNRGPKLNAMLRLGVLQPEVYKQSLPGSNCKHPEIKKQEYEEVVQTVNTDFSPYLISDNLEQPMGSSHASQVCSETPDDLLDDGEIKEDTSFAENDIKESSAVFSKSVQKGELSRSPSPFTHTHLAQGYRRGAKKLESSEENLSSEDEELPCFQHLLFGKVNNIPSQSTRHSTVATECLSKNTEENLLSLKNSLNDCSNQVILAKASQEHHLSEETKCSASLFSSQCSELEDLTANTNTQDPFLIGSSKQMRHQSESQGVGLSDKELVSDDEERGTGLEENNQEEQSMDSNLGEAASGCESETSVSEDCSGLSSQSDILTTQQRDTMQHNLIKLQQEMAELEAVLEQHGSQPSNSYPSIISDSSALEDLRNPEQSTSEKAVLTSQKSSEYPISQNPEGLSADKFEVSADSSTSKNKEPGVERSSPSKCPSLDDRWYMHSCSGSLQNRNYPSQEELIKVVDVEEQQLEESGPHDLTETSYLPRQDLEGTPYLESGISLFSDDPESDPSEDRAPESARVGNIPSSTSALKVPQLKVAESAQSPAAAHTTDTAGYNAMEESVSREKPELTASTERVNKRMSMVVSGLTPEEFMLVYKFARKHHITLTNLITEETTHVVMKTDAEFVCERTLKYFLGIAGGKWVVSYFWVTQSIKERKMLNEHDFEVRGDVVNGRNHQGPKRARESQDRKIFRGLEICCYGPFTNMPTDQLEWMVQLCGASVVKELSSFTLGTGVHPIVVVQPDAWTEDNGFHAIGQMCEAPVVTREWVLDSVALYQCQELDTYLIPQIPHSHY
UniProt O60331: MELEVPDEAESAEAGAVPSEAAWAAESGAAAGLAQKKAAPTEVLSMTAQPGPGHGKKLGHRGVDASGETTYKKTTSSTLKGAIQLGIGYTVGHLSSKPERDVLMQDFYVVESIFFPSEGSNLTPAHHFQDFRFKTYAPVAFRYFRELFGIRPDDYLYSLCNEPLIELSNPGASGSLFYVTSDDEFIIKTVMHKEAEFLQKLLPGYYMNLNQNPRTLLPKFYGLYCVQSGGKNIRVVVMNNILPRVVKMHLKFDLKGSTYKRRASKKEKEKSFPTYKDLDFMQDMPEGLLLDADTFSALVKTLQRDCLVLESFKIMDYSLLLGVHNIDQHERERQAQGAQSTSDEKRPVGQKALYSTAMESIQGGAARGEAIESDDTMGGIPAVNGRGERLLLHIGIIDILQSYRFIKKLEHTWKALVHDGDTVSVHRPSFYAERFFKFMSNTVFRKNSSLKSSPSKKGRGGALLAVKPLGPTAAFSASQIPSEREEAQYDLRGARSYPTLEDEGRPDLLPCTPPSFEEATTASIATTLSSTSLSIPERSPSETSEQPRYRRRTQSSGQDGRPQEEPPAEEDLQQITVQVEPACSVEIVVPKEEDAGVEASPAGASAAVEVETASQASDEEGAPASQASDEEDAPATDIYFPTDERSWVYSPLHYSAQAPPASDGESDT

binding: no binding
Substance: type Iγ phosphatidylinositol phosphate kinase (from UniProt O60331 1-668) (enzyme)
